The record followed here is patent US5670316.

Protein sequences, listed by entry. Tags and fused reporters are not part of them. Residues count along the entry.
UniProt P0A7G6, 2-353: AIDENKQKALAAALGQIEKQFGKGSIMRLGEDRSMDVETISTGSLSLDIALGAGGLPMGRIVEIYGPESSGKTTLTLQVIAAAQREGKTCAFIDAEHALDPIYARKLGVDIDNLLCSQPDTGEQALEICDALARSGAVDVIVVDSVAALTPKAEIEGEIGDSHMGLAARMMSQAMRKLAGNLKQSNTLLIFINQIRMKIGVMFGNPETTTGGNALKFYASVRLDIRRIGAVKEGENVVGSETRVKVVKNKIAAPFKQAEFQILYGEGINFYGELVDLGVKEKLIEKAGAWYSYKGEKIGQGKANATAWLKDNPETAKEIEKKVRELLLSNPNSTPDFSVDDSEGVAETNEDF

In the data set the target is RecA (UniProt P0A7G6). Kind of data set: activity assay. To be noted: deproteinization-stable double D-loop on lambda DraI target; too much RecA decreases product; purified recombinant protein; label: 32P 5'-end; single-stranded DNA.

As to “CGGTGTGGCAGCCGAAATGACAGAGCGCGGCCTGGCCAGAATGCAATAACGGGAGGCGCTGTGGCTGATTTCGATAACC [lambda 79-mer probe (7552-7630), heat denatured]”, the “activity on this sequence” value is given as “active”.
